Measurements published in paper PMC4063170.
Results are given in words; binding and its absence hold for the method and conditions named. Binding seen in cells or lysates may run through a third protein. Some results given as binding are weak or reduced against the parent protein; the word gives no strength.

Amino acid sequences for entries named in this document (tags omitted).
UniProt O94916: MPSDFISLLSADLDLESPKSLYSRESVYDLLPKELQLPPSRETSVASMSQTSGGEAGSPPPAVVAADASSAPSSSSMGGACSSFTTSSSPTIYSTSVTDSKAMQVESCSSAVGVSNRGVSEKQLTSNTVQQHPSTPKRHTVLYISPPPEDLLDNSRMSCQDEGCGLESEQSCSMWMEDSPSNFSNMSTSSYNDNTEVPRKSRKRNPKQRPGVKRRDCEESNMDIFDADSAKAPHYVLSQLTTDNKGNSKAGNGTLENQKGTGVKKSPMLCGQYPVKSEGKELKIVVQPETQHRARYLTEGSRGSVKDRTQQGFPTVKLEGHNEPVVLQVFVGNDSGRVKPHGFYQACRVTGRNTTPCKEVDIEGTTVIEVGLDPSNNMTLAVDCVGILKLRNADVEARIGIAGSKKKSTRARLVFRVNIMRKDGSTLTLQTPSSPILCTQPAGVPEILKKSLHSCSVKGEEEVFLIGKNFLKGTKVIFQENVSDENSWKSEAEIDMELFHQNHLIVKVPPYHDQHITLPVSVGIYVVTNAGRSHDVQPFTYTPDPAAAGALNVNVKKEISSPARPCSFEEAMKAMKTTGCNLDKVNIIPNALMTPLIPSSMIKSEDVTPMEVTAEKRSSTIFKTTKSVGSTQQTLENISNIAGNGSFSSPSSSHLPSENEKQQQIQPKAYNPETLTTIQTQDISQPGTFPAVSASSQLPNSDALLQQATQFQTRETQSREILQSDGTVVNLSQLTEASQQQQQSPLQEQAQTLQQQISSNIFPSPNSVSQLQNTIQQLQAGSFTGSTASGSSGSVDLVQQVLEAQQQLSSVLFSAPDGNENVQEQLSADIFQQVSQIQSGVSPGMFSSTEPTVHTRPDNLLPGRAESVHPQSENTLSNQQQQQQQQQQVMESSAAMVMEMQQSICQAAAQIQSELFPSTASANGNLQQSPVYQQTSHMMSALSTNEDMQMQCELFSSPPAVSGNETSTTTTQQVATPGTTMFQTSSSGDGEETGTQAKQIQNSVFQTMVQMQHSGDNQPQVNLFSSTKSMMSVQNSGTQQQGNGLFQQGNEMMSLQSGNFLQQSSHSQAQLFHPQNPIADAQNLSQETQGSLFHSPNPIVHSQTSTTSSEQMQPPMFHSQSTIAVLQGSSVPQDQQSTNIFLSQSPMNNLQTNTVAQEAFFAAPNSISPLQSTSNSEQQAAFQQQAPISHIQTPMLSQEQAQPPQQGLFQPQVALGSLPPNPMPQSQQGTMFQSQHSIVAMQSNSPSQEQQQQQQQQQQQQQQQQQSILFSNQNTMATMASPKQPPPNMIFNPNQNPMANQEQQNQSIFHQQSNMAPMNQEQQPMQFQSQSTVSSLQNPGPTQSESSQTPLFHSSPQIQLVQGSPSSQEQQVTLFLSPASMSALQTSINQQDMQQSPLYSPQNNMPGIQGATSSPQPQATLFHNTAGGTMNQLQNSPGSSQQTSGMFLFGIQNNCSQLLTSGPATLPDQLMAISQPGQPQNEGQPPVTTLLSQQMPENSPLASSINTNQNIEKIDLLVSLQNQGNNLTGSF
UniProt Q13547: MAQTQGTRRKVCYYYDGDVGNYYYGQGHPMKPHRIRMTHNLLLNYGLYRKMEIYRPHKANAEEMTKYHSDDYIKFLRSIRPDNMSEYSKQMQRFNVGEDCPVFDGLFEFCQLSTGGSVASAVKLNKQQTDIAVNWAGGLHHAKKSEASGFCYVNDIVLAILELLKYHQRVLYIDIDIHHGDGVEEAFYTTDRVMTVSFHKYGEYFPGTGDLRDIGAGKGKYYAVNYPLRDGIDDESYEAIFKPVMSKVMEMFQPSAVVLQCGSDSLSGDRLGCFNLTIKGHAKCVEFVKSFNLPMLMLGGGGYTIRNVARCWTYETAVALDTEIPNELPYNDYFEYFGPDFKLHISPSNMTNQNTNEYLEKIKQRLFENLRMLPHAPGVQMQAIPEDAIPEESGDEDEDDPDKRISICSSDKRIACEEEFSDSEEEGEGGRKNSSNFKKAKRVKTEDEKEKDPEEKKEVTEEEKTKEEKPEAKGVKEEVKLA

Columns and labels:
[1] = target: FLAG-tagged TonEBP (tonicity-responsive enhancer binding protein), wild type, c-form (human) (UniProt O94916); test: co-IP; coimmunoprecipitation analysis of TonEBP dimerisation, WT against DIM; data not shown, no details given
HDAC1 = HDAC1 (UniProt Q13547); test: co-IP; co-immunoprecipitation of TonEBP with HDAC1; data not shown, no details given

With “FLAG-tagged TonEBP (tonicity-responsive enhancer binding protein), wild type, c-form (from UniProt O94916 1-1531)” the binding [1] was “binds” and the binding (HDAC1) was “binds”.
